Paper PMC4426367
These are yes or no findings as the source states them, for the method shown. In cells and extracts the contact can be indirect. Binding calls can cover weak binding; strength is not graded here.

The chains behind the UniProt entries cited, without tags or fusion partners. Where a name states a change or a piece, a line headed by the entry shows the natural chain unless it says otherwise.
UniProt Q9VGX5: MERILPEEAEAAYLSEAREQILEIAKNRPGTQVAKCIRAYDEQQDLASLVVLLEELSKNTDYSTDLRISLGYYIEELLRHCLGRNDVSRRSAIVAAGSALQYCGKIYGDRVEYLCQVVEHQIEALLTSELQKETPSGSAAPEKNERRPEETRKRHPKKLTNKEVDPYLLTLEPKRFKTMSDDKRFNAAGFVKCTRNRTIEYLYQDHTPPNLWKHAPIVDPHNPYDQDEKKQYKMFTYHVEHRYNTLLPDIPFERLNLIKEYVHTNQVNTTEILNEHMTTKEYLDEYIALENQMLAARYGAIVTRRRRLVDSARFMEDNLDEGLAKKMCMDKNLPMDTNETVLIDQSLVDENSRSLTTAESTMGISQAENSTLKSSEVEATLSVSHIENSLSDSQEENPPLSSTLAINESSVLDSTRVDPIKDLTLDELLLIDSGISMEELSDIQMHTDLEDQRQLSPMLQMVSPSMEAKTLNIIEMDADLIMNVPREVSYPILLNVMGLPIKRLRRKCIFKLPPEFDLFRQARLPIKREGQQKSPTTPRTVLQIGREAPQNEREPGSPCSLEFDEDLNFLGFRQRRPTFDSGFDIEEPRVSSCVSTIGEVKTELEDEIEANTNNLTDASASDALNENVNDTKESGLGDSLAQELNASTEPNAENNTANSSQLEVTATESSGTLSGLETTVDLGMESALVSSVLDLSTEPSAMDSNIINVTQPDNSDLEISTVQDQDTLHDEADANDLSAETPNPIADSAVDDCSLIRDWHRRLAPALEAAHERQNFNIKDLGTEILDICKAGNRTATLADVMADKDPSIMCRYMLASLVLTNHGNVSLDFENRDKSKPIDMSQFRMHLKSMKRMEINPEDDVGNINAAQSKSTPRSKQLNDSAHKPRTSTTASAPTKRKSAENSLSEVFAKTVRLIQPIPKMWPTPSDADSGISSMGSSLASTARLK

Target: Cap-H2-EGFP (Drosophila) (UniProt Q9VGX5)
Assay: co-IP; GFP-binding protein on Protein A-coupled Sepharose; lysates of transfected S2 cells (induced with 1-2 mM CuSO4, 24 hr) in CLB (100 mM Tris pH 7.2, 125 mM NaCl, 1 mM DTT, 0.1% Triton X-100, 0.1 mM PMSF), 40 min at 4°; immunoblots with anti-GFP and anti-Mrg15

B1: Mrg15 (protein, UniProt Q9Y0I1 1-424)
chain: MGEVKPAKVENYSTGTDANTLFVDGERVLCFHGPLIYEAKVLKTKPDATPVEYYIHYAGWSKNWDEWVPENRVLKYNDDNVKRRQELARQCGERSKKDNKKGSAKAKKMEQMRNESRASTPSKDSNTSQSTASSTPTTSAGPGSKSEAGSTGTTTTNSTANSTTSRAHRKSTQSTPSTARPGTPSDKKEDPAAAETTEEEGPVAPKKKRMSEQRPSLTGSDVAEKPLPPTTTPSTPTTEPAPCVESEEAYAAKVEVKIKIPDELKHYLTDDWYAVVREHKLLELPAKVTVQQISEQYLAHKKSVKSTSASKEVAINDVLDGIVEYFNVMLGSQLLYKFERTQYADVMQKHPDTPLSELYGSFHLLRLFVRLGSMLSYSALDQQSMQNLLTHVQDFLKFLVKNSSIFFSMSNFINVDPEYVRNAQ
Question: How did the binding turn out when B1 was run?
Answer: The binding was “binds”.
